Reference: patent publication US12268781B2, “Sustained-release pharmaceutical compositions comprising a therapeutic agent for treating dementia and uses thereof” (priority 2018, dated 2025)
Where a name gives a salt, the structure may show the parent alone. Read-outs that look alike come from different tables or passages of the source.

Legend:
[1] = rats, cited from earlier work
[2] = PK study of liposomal donepezil in rats, subcutaneous injection
Protocol: An in vivo PK evaluation of the liposomal rivastigmine formulation was performed using 7-8 weeks old female Sprague-Dawley rats. The rats were housed in a holding room which operated on a 12-hr light/12-hr dark circadian cycle with free access to water and food.
The rats were divided into two groups (n=3 in each group), one group received subcutaneous injection of 10 mg/kg of free rivastigmine tartrate, prepared by dissolving rivastigmine tartrate in ultrapure water with a final concentration of 2 mg/mL. The other group received subcutaneous injection of 10 mg/kg of liposomal rivastigmine tartrate, prepared according to Example 1. Blood samples were collected at 15 min, 1, 2, 4, 6, 8, 24, 48, and 72 hours post-injection. Plasma samples were obtained by centrifugation, kept frozen at −80° C. and analyzed using a noncompartmental analysis model in PKSolver (Comput Methods Programs Biomed. 2010; 99(3):306-314).

[3] = female, Sprague-Dawley, rat, in vivo, sc, 10 mg/kg

Q: With `COc1cc2c(cc1OC)C(=O)C(CC1CCN(Cc3ccccc3)CC1)C2` (centres unmarked) [Free Donepezil, donepezil hydrochloride] as the molecule, how does the half-life ([1]; intranasal administration) read?
A: 4.2 h

Q: What about the half-life ([1]; oral administration) of the same molecule?
A: 4.3 h

Q: And the AUC(0-inf) [2, 3]?
A: 2590 ng·h/mL

Q: And the half-life [2, 3]?
A: 3.37 h

Q: And the donepezil in plasma ([2]; rats, 24 hours post injection, FIG. 3)?
A: undetectable
